Results taken from paper PMC12533850.
No constants are given. Whether binding was seen depends on the method and setting. In cells and extracts the contact can be indirect. Some results given as binding are weak or reduced against the parent protein; the word gives no strength.

The chains behind the UniProt entries cited, without tags or fusion partners.
UniProt P52294: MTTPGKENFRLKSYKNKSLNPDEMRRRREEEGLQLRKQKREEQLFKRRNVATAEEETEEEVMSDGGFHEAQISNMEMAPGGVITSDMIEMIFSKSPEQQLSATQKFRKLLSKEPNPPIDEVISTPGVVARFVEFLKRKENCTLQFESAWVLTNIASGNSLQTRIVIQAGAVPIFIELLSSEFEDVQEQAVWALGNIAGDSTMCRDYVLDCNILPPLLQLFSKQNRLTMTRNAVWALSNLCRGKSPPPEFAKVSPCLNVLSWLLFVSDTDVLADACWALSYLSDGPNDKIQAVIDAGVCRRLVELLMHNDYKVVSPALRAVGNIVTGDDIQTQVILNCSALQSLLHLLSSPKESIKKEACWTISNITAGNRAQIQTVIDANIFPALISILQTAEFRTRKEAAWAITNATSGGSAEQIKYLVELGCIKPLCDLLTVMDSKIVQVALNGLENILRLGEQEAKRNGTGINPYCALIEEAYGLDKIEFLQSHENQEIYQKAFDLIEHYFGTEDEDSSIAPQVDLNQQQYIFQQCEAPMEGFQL
UniProt P03146: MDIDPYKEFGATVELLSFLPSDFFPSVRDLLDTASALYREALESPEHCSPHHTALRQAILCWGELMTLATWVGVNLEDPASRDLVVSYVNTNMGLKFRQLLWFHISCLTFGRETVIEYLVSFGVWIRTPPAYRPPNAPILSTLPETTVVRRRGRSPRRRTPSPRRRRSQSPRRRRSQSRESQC

Biological target: N-terminally FLAG-tagged karyopherin α1 (UniProt P52294)
Assay: co-IP; HepAD38 induced (tet-) for 6 days, then co-transfected with FLAG-Kα1 and control vector or C1QBP for 2 more days; anti-FLAG precipitation, Western blot for HBc

In the case of “HBV core protein (HBc) made in HepAD38 cells (from UniProt P03146 1-183)”, the binding was “binds”.
